This is an account of results in the supplement of paper PMC8047044.

Structures can show the parent of a compound that is named as a salt. The list shows a part of the results. Most values come without repeats; read them as rough.

The test system of this assay is Neuro-2a. Kind of assay: neurite formation score, plate-normalized to DMSO control mean 5.04 (score (0-8 scale)); higher = more or longer neurites. To be noted: 10 µM.
`c1cc(-c2cnn3cc(-c4ccc(N5CCNCC5)cc4)cnc23)c2cccnc2c1` gave a neurite formation score of 4.19. `COc1ccccc1-c1cc(Nc2cccc(CS(N)(=O)=O)c2)ncn1` yielded a neurite formation score of 5.52. Under `Nc1cc(N)c(N)cc1N` [FAK Inhibitor 14] stands 4.19; under `Cc1ccc(-c2nn(C(C)(C)C)c3ncnc(N)c23)cc1`, 2.52; under `CS(=O)(=O)CCNCc1ccc(-c2ccc3ncnc(Nc4ccc(OCc5cccc(F)c5)c(Cl)c4)c3c2)o1` [Lapatinib], 3.52.

For `CCc1cccc(CC)c1NC(=O)N1Cc2[nH]nc(NC(=O)c3ccc(N4CCN(C)CC4)cc3)c2C1`, the neurite formation score turned out to be 0.0903.

Compound `CCN(CC)CCNC(=O)c1c(C)[nH]c(/C=C2\C(=O)Nc3ccc(F)cc32)c1C` [Sunitinib malate] yielded a neurite formation score of 2.52. Under `CCN(CC)CCCCNc1ncc2cc(-c3cc(OC)cc(OC)c3)c(NC(=O)NC(C)(C)C)nc2n1` stands 4.19; under `O=C(NC[C@H](O)CO)c1ccncc1Nc1ccc(I)cc1F`, 4.85. `NC1(Cc2ccc(Cl)cc2)CCN(c2ncnc3[nH]ccc23)CC1` had a neurite formation score of 6.76. Under `COc1cc2ncnc(Oc3cccc(NC(=O)Nc4cc(C(C)(C)C(F)(F)F)on4)c3)c2cc1OC` stands 3.21; under `Nc1cccc(-c2cc3c(Oc4cccc(O)c4)ncnc3[nH]2)c1`, 0.855. To `Cc1ccc(Nc2nccc(N(C)c3ccc4c(C)n(C)nc4c3)n2)cc1S(N)(=O)=O` [Pazopanib Hydrochloride] belongs 3.85; to `O=C(Nc1cccc(Nc2ncc(Br)c(NCCc3cnc[nH]3)n2)c1)N1CCCC1`, 1.88; to `Nc1cc(C(F)(F)F)c(-c2cc(N3CCOCC3)nc(N3CCOCC3)n2)cn1`, 0.543. Under `Cc1ccc(C(=O)Nc2ccc(CN3CCN(C)CC3)c(C(F)(F)F)c2)cc1C#Cc1cnc2cccnn12` stands -0.147.

Turning to `Cc1c(F)cc(C(=O)NC2CC2)cc1-c1ccc(C(=O)NCC(C)(C)C)cn1` [Losmapimod], the neurite formation score is 4.52. `COc1cc(N2CCC(N)CC2)ccc1Nc1ncc(Cl)c(-c2c[nH]c3ccccc23)n1` displayed a neurite formation score of 1.09. `CC(C)Nc1cc(-c2c[nH]c(C(=O)N[C@H](CO)c3cccc(Cl)c3)c2)c(Cl)cn1` yielded a neurite formation score of 3.42. `CCCCCCCCCCCCCC(=O)OC[C@H](CO)OC(=O)CCCCCCCCCCCCC` [1,2-Dimyristoyl-sn-glycerol] showed a neurite formation score of 4.86. To `O=C(NOCC1CC1)c1ccc(F)c(F)c1Nc1ccc(I)cc1Cl` belongs 3.54; to `COc1cc(N2CCOCC2)ccc1Nc1ncc(F)c(Nc2ccccc2NS(C)(=O)=O)n1`, 5.19. To `N=C(N)NC(=N)NCCc1ccccc1` [Phenformin HCl] belongs 4.42; to `Cn1cc(-c2ccc3c(c2)CCN3C(=O)Cc2cccc(C(F)(F)F)c2)c2c(N)ncnc21`, 5.41; to `Cc1cnc(Nc2ccc(F)cc2Cl)nc1-c1c[nH]c(C(=O)N[C@H](CO)c2cccc(Cl)c2)c1`, 3.08.

For `CN(C)S(=O)(=O)c1ccc2c(c1)/C(=C/c1cc3c([nH]1)CCCC3)C(=O)N2`, the neurite formation score amounted to 2.52. Under `O=C(NCCO)c1cccc(-c2cc(Nc3ccc(OC(F)(F)F)cc3)ncn2)c1` stands 6.76. Under `Brc1c(Br)c(Br)c2n[nH]nc2c1Br` stands 0.0903; under `C=CC(=O)N1CCC(Oc2cc3c(Nc4ccc(Cl)c(Cl)c4F)ncnc3cc2OC)CC1` [Poziotinib], -0.576. Under `C=CC(=O)Nc1ccc2ncnc(Nc3ccc(OCc4cccc(F)c4)c(Cl)c3)c2c1` stands 3.85.

On to `Cc1ccc2c(Nc3ccc(Cl)cc3)nccc2c1Nc1ncccc1-c1ncnc2nc[nH]c12` [B-Raf inhibitor 1], for which the neurite formation score was found to be 0.0903.

For `CN1CCN(c2cccc(Nc3nc4c(-c5ccc(S(C)(=O)=O)cc5)cccn4n3)c2)CC1`, the neurite formation score was determined as 4.08.

Turning to `COCCOc1ccc2c(c1)ncn2-c1ccc2cccc(N3CCC(N)CC3)c2n1`, the neurite formation score was determined as 5.86.

The compound `CNC(=O)c1cc(Oc2ccc(NC(=O)Nc3cc(C(C)(C)C)nn3-c3ccc4ncccc4c3)c(F)c2)ccn1` [DCC-2036 (Rebastinib)] had a neurite formation score of 1.76. To `O=C(NOC[C@H](O)CO)c1ccc(F)c(F)c1Nc1ccc(I)cc1F` belongs 4.88; to `O=C(Nc1ccc(-c2ccnc(Nc3ccc(N4CCOCC4)cc3)n2)cc1)C1CCCN1` (centres undefined), 3.74; to `Cc1ccc(NC(=O)c2ccc(CN3CCN(C)CC3)cc2)cc1Nc1nccc(-c2cccnc2)n1` [Imatinib (STI571)], 5.19. To `COc1ccc(CNC(=O)Nc2ncc([N+](=O)[O-])s2)cc1` belongs 4.88; to `Clc1ccc(C2(c3ccc(-c4cn[nH]c4)cc3)CCNCC2)cc1`, 4.85.
